Test results as given in PMC6121541.

What was measured:
Assay in all cases: two-hybrid; GAL4 Matchmaker system, yeast AH109; GAL4AD-LFMADS (pGADT7, prey) with GAL4BD-LFMADS (pGBKT7, bait); 10^6 cells spotted, growth scored on SD/–His–Leu–Trp, control SD/–Leu–Trp
[1] = biological target: Lilium formosanum MADS-box protein 1 (LFMADS1) (Lilium formosanum)
[2] = biological target: Lilium formosanum MADS-box protein 2 (LFMADS2) (Lilium formosanum) (UniProt I6RAP0)
[3] = biological target: Lilium formosanum MADS-box protein 3 (LFMADS3) (Lilium formosanum)
[4] = biological target: Lilium formosanum MADS-box protein 7 (LFMADS7) (Lilium formosanum)
[5] = biological target: Lilium formosanum MADS-box protein 6 (LFMADS6) (Lilium formosanum)
[6] = biological target: Lilium formosanum MADS-box protein 4 (LFMADS4) (Lilium formosanum) (UniProt E3VTL2)

| binding [1] | binding [2] | binding [3] | binding [4] | binding [5] | binding [6] | Substance |
| --- | --- | --- | --- | --- | --- | --- |
| binds weakly | no binding | no binding | no binding |  |  | Lilium formosanum MADS-box protein 6 (LFMADS6) (from UniProt A0A023ZT32) |
| binds |  |  |  | no binding |  | Lilium formosanum MADS-box protein 2 (LFMADS2) (from UniProt I6RAP0) |
| binds weakly |  |  |  | no binding | binds weakly | Lilium formosanum MADS-box protein 7 (LFMADS7) (from UniProt A0A023ZSM5) |
| binds |  |  | binds |  |  | Lilium formosanum MADS-box protein 4 (LFMADS4) (from UniProt E3VTL2) |
|  | binds |  | binds | binds | binds | Lilium formosanum MADS-box protein 1 (LFMADS1) (from UniProt A0A023ZT28) |
|  |  |  |  | no binding |  | Lilium formosanum MADS-box protein 3 (LFMADS3) (from UniProt A0A023ZTM0) |

Results are given in words; binding and its absence hold for the method and conditions named. For some of these results: Binding can be weak; no strength is given.
